PubChem BioAssay AID504786 | Drosophila RNAi Screening Center | 2011
The deposit covers about 21,000 reagents; below is an unselected part of those with a known target gene and a result. 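Primary screen; positive scores mean lost reporter signal, so the sign may be inverted from the usual convention.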 Names joined by + are all predicted targets of the reagent. Not all columns of the deposit are shown.

- Aim: 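Fly genes required for HIF-dependent transcription when hypoxia is mimicked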 (primary screen)
- System: Drosophila S2 cells with a stable HIF luciferase reporter
- Knock-down reagent: long dsRNA against Drosophila genes, about 0.2 µg dsRNA per well of a 384-well plate
- Duration: three days of knock-down, then 20 h of DFO before reading
- Conditions: desferrioxamine (DFO) at 100 µM, an iron chelator that mimics hypoxia, for 20 h
- Measurement: 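HIF reporter luminescence in cells given 100 µM DFO for 20 h, using the mouse ldh-a hypoxia-response element, scored as per-plate z-scores; higher means greater loss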
- Reading the numbers: z-score: higher = stronger loss of HIF reporter signal

z-score, replicate 1, by gene and reagent
PPP1R15: SID104184214 -0.3
nompB: SID104183493 -0.3; SID104183523 -0.2
Atg2: SID104188065 -0.2
CG5377: SID104195575 0.1
CG34046 (retired record): SID104193867 -0.8
Cyp4d14: SID104198249 -0.2
CG13325: SID104186154 -0.1
CG4615: SID104197283 -0.3; SID104198168 1.7
Rab27: SID104198359 -0.3
tor: SID104187499 -0.2
Tsp66A + CG42661 + CG42660: SID104190025 -0.1
ATPsynG: SID104182720 0.5
CG31515: SID104193402 -0.3
CG32195: SID104189325 -0.3
CG12093: SID104188044 -0.2
SoYb: SID104182693 -0.2
CG10912: SID104185801 -0.1
CG15498: SID104194832 -0.1
side: SID104194315 -0.4; SID104194508 -0.3; SID104194509 -0.4; SID104194510 -0.1; SID104194513 -0.3
CG34375: SID104194476 -0.2; SID104194477 -0.4
CG30114: SID104185499 0.5
CG1701: SID104186433 -0.2
CG13056: SID104189729 -0.2
CG8925: SID104196247 -0.1; SID104196248 -0.1; SID104196249 -0.4
CG34135 + Nasp: SID104196189 0.6
CG12768: SID104191472 0.3
Vhl: SID104187508 -0.3

In a second layout: entries from further up.
{"Gene": "Atg2", "PubChem SID": "SID104188065", "z-score, replicate 1": -0.2}
{"Gene": "CG5377", "PubChem SID": "SID104195575", "z-score, replicate 1": 0.1}
{"Gene": "CG34046 (retired record)", "PubChem SID": "SID104193867", "z-score, replicate 1": -0.8}
{"Gene": "Cyp4d14", "PubChem SID": "SID104198249", "z-score, replicate 1": -0.2}
{"Gene": "CG13325", "PubChem SID": "SID104186154", "z-score, replicate 1": -0.1}
{"Gene": "CG4615", "PubChem SID": "SID104197283", "z-score, replicate 1": -0.3}
{"Gene": "CG4615", "PubChem SID": "SID104198168", "z-score, replicate 1": 1.7}
{"Gene": "Rab27", "PubChem SID": "SID104198359", "z-score, replicate 1": -0.3}
{"Gene": "tor", "PubChem SID": "SID104187499", "z-score, replicate 1": -0.2}

The list goes on:
z-score, replicate 1, by gene and reagent
CR42545: SID104183501 -0.3
CG9297: SID104196261 -0.4
Cpr47Eb: SID104186137 -0.4
Rexo5: SID104190773 -0.2
CG13228: SID104186140 -0.5
CG7465: SID104188384 -0.4
Mis12: SID104190091 0.2
CG13455: SID104189794 -0.2
mys: SID104198591 -0.3
CG34214: SID104184282 -0.2
CG12861: SID104185993 -0.4
Cf2: SID104180536 1.1
Galphaf: SID104190963 -0.1
CG6441: SID104182749 -0.3
Tengl1: SID104180273 -0.1
Slh: SID104180581 -0.5
Rh2: SID104196613 0
nAChRalpha1: SID104193456 0.1; SID104193462 8.1; SID104193464 -0.4; SID104196800 -0.5
